{"source": "patent US20050196806A1", "about": "(The Government of the USA, as represented by the Secretary, …, priority 1996, published 2005)", "assay": "general procedure: Fmoc solid-phase peptide synthesis", "conditions": "whole synthesis, scale 25 μmole", "note": "No end group written: not given here."}
{"sequence": "FLTPKKLQCVDLHVISNDVCAQVHPQKVTK (cysteines drawn unpaired)", "values": [{"measurement": "crude mass", "value": "approximately 64 mg"}]}
